Laboratory results published in patent US12208112B2, “Composition for treating blood cancer using 4′-thio-5-Aza-2′-deoxycytidine and uses thereof” (Southern Research Institute, priority 2020, dated 2025).
At least one compound was matched to its structure with a doubt left.

Legend:
MV4-11 AML cells [1] = test: Systemic AML model, MV4-11 AML cells transplanted into the bone marrow (survival, clinical observations); conditions: one cycle; Aza-T-dCyd 2.0 mpk PO; decitabine and azacytidine at optimal doses as controls
MV4-11 AML cells [2] = test: Blood analysis (CBC sampling) in the systemic AML model; conditions: treated groups of the AML model

With Nc1ncn([C@H]2C[C@H](O)[C@@H](CO)O2)c(=O)n1 [decitabine, reference compound] the survival improvement (MV4-11 AML cells [1]) was “did not show survival improvement” and the “survival until collection of blood samples” value (MV4-11 AML cells [2]) was “all subjects had already died before the collection of blood samples”.
